Where a chain is given by its changes, count along the chain named. No constants are given. Whether binding was seen depends on the method and setting. Some results given as binding are weak or reduced against the parent protein; the word gives no strength.
B1: antibody 12228 (antibody, V domains shown)
VH: QVQLVQSGAEVKKPGASVKVSCKASGYTFTSYYMHWVRQAPGQGLEWMGIINPSGGSTSYAQKFQGRVTMTRDTSTSTVYMELSSLRSEDTAVYYCARGGTYYDYTYWGQGTLVTVSS
VL: DIQMTQSPSTLSASVGDRVTITCRASQSISSWLAWYQQKPGKAPKLLIYEASSLESGVPSRFSGSGSGTEFTLTISSLQPDDFATYYCQQYNSFPPTFGGGTKVEIK
B2: antibody 13406 (antibody, V domains shown)
VH: B1 VH with T30D, S31Q, S59A
VL: B1 VL
B3: antibody 13409 (antibody, V domains shown)
VH: B1 VH with T30E, S57V, S59A
VL: B1 VL
B4: antibody 13407 (antibody, V domains shown)
VH: B1 VH with T30P, S54E, S59A
VL: B1 VL
B5: antibody 13408 (antibody, V domains shown)
VH: B1 VH with T30S, S31D, S57V, S59A
VL: B1 VL

Protein sequences, listed by entry. Tags and fused reporters are not part of them. Residues count along the entry.
UniProt Q02242, residues 25-167: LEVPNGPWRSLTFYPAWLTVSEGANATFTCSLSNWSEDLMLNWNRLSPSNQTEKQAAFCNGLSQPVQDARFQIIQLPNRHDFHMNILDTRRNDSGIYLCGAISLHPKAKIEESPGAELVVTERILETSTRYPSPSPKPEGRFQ
UniProt Q15116, residues 25-167: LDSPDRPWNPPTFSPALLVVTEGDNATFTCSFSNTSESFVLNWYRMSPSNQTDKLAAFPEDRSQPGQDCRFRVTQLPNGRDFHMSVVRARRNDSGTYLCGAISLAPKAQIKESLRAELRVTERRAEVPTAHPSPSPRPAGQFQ

These binders were tested against Mouse PD-1-Fc fusion (mouse) (UniProt Q02242) (assay: BLI (Octet, ForteBio): mPD1 (mouse PD-1-Fc) on the sensor, hFc blocking, then anti-PD-1 antibody step at 840-1140 s (10 µg/mL per paragraph 359)).

Row | binding | Binder
1 | binds | B1
2 | binds | B2
3 | binds | B3
4 | binds | B4
5 | binds | B5

What follows are binders tested against Human PD-1-Fc fusion (human) (UniProt Q15116) (assay: BLI (Octet, ForteBio): hPD1 (human PD-1-Fc) on the sensor, hFc blocking, then anti-PD-1 antibody step at 840-1140 s (10 µg/mL per paragraph 360)).

Row | binding | Binder
6 | binds | B1
7 | binds | B2
8 | binds | B3
9 | binds | B4
10 | binds | B5

The binders below were run against Human PD-1-Fc fusion (human) (UniProt Q15116) (assay: BLI (Octet, ForteBio): hPD1 (human PD-1-Fc) on the sensor, hFc blocking, anti-PD-1 antibody step at 840-1140 s (10 µg/mL per paragraph 360), then buffer without ligand).

Row | binding | Binder
11 | binds | B1
12 | binds | B2
13 | binds | B3
14 | binds | B4
15 | binds | B5

Reference: patent US20180118829A1
